Measured data: PubChem BioAssay AID1224830 (NIAID, 2016)

- Purpose: 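Regulators of TLR4 signalling towards TNF-alpha in macrophage-like cells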 (primary screen)
- Cell system: human THP-1 monocytic leukaemia cells, TNF dual-luciferase reporter clone, PMA-differentiated to macrophage-like cells
- Reagents: siRNA pool against human genes, 50 nM
- Duration: LPS for 4 h, given about 3 days after siRNA transfection
- Challenge: bacterial LPS (TLR4 ligand), 10 ng/ml
- Read-out: 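TNF firefly reporter luminescence divided by renilla, normalised to the plate median, then turned into a robust z-score for each replicate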
- Direction: TNF reporter robust z-score: higher = stronger TNF reporter response to LPS
- Active means: 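Each well counts as active if its z-score is over 2.8 or under -1.5; controls are left without a call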
Shown is an unselected part of about 18,000 reagents. In the full data, about 2,900 (16%) got an active call. 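Calls are made per well; low scores hint the gene aids the LPS response, high scores that it dampens it.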 Unmarked entries are inactive. Repeated entries: four replicate wells of each siRNA pool.

Against GAS2 (GeneID 2620), the entry reads TNF reporter robust z-score -0.76.
With knock-down of GAS2 (GeneID 2620), the record shows TNF reporter robust z-score -0.91.
For GAS2 (GeneID 2620), the values are TNF reporter robust z-score -0.95.
Silencing of GAS2 (GeneID 2620) came out at: TNF reporter robust z-score -1.07.
With knock-down of SEC14L3 (GeneID 266629) the results were TNF reporter robust z-score -0.66.
Depletion of SEC14L3 (GeneID 266629) gave: TNF reporter robust z-score -0.73.
Silencing of SEC14L3 (GeneID 266629) came out at: TNF reporter robust z-score -0.1.
SEC14L3 (GeneID 266629) scored TNF reporter robust z-score -0.23.
Knock-down of PPP4R3A (GeneID 55671) gave: TNF reporter robust z-score -0.34.
With knock-down of PPP4R3A (GeneID 55671), the screen gave TNF reporter robust z-score 0.73.
Silencing of PPP4R3A (GeneID 55671) resulted in: TNF reporter robust z-score -0.53.
Depletion of PPP4R3A (GeneID 55671) resulted in: TNF reporter robust z-score -0.24.
For ZNF674 (GeneID 641339), the entry reads TNF reporter robust z-score -0.75.
Against ZNF674 (GeneID 641339), the values are TNF reporter robust z-score 0.69.
ZNF674 (GeneID 641339) gave TNF reporter robust z-score -0.36.
With knock-down of ZNF674 (GeneID 641339) the results were TNF reporter robust z-score 0.66.
OR52R1 (GeneID 119695) gave TNF reporter robust z-score 0.64.
OR52R1 (GeneID 119695) scored TNF reporter robust z-score 0.22.
OR52R1 (GeneID 119695) showed TNF reporter robust z-score 0.29.
Against OR52R1 (GeneID 119695), the entry reads TNF reporter robust z-score 0.41.
After knock-down of GPR55 (GeneID 9290) the results were TNF reporter robust z-score 0.35.
With knock-down of GPR55 (GeneID 9290), the screen gave TNF reporter robust z-score 1.94.
Silencing of GPR55 (GeneID 9290) resulted in: TNF reporter robust z-score 1.67.
After knock-down of GPR55 (GeneID 9290), the screen gave TNF reporter robust z-score 1.87.
Knock-down of SEMA3G (GeneID 56920) gave: TNF reporter robust z-score 0.07.
Depletion of SEMA3G (GeneID 56920) gave: TNF reporter robust z-score 0.48.
After knock-down of SEMA3G (GeneID 56920), the record shows TNF reporter robust z-score 0.18.
Knock-down of SEMA3G (GeneID 56920) came out at: TNF reporter robust z-score 1.02.
After knock-down of MROH5 (GeneID 389690), the screen gave TNF reporter robust z-score 2.12.
With knock-down of MROH5 (GeneID 389690), the record shows TNF reporter robust z-score 3.25 (active).
After knock-down of MROH5 (GeneID 389690), the screen gave TNF reporter robust z-score -0.86.
Against MROH5 (GeneID 389690) the deposit lists TNF reporter robust z-score 0.26.

Part of the list above, reformatted.
{"target": "PPP4R3A (GeneID 55671)", "TNF reporter robust z-score": -0.34}
{"target": "PPP4R3A (GeneID 55671)", "TNF reporter robust z-score": 0.73}
{"target": "PPP4R3A (GeneID 55671)", "TNF reporter robust z-score": -0.53}
{"target": "PPP4R3A (GeneID 55671)", "TNF reporter robust z-score": -0.24}
{"target": "ZNF674 (GeneID 641339)", "TNF reporter robust z-score": -0.75}
